Patent US8557603B2 (FlySun Development Co. Ltd., priority 2009, dated 2013)

Test: general procedure: Fmoc solid-phase peptide synthesis
Settings: whole synthesis, 220 nm

Substance: H-KATFGCHDGYSLDGPEEIECTKLGNWSAMPSCKASCKVPVKKATVVYQGERVKIQEK-OH (cysteine pairing not given here)
- final HPLC purity: 95.23%
